Article doi:10.1101/2025.06.18.660428
These are yes or no findings as the source states them, for the method shown. In cells and extracts the contact can be indirect. A yes stands for co-enrichment or nearness to the bait. Other partners may have been found.

Chains of the proteins cited; added tags and fusions are not shown. Lines headed by an entry give the natural chain unless they say otherwise; changes in a name come on top.
UniProt P12830: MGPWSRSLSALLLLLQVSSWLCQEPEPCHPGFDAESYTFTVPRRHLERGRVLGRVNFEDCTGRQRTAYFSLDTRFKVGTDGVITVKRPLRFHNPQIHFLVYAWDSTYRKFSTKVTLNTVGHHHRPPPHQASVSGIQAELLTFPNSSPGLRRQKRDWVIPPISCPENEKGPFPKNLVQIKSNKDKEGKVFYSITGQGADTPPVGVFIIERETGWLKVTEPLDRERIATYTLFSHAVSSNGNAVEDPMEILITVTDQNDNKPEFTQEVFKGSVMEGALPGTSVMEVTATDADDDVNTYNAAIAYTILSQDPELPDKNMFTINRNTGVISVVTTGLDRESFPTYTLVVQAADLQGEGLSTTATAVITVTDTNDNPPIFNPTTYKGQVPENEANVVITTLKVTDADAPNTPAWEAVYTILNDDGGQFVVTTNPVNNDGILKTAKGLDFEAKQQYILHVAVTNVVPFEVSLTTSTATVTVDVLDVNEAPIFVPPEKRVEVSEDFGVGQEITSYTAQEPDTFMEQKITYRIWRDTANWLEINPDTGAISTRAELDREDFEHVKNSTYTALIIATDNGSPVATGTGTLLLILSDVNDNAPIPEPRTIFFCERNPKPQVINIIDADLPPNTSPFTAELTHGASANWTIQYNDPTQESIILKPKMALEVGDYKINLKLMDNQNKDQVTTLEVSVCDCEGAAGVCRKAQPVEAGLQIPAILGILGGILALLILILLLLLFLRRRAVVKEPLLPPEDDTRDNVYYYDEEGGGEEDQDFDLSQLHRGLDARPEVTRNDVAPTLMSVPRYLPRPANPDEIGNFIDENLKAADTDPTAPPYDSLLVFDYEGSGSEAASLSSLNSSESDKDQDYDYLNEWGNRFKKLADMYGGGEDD
UniProt P98170: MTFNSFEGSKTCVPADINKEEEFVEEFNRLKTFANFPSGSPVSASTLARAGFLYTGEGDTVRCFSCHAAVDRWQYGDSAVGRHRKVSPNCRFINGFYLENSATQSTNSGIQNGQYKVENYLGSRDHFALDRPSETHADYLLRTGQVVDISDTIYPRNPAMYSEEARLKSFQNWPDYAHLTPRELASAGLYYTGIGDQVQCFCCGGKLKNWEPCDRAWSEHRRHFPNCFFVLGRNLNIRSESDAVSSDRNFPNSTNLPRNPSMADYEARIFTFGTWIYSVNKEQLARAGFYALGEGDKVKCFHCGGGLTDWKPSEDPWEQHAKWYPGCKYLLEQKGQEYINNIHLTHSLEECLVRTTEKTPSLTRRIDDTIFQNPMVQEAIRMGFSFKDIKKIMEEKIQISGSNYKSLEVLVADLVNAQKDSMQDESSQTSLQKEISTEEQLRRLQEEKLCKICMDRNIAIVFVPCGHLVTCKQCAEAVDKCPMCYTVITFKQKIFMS

Molecular target: BioID2-tagged soluble E-cadherin (sEcad, 1-707aa) (human) (UniProt P12830)
Experiment: proximity labelling

Question: “Endogenous XIAP (X-linked inhibitor of apoptosis protein) (from UniProt P98170 1-497)” was tested. Which binding did it give?
Answer: binds
